## Cleaved PARP after 72 h of treatment

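The test systems are human melanoma cell lines, treated with a pair of drugs for 72 h and then stained and imaged. Values are the share of nuclei positive for cleaved PARP as a percentage of the same share in the DMSO control: 100 is the control level, higher means more apoptosis. Concentrations were fixed for each drug; these are the higher of two levels. These are primary screening values without error estimates. Basal and induced levels differ widely between cell lines.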
An unselected part of the screen is shown.
A dash means that no value is listed here.

All values are for the listed drug together with GSK0660 (5000 nM): COC(=O)c1sccc1S(=O)(=O)Nc1ccc(Nc2ccccc2)cc1OC

Compounds and concentrations:
lestaurtinib (20 nM): C[C@]12O[C@H](C[C@]1(O)CO)n1c3ccccc3c3c4c(c5c6ccccc6n2c5c31)CNC4=O
XAV939 (10000 nM): Oc1nc(-c2ccc(C(F)(F)F)cc2)nc2c1CSCC2
dovitinib (500 nM): CN1CCN(c2ccc3nc(-c4c(N)c5c(F)cccc5[nH]c4=O)[nH]c3c2)CC1
CHIR-265 (400 nM): Cn1c(Nc2ccc(C(F)(F)F)cc2)nc2cc(Oc3ccnc(-c4ncc(C(F)(F)F)[nH]4)c3)ccc21
MK-1775 (100 nM): C=CCn1c(=O)c2cnc(Nc3ccc(N4CCN(C)CC4)cc3)nc2n1-c1cccc(C(C)(C)O)n1
KU-0063794 (100 nM): COc1ccc(-c2ccc3c(N4CCOCC4)nc(N4C[C@@H](C)O[C@@H](C)C4)nc3n2)cc1CO
T0901317 (7000 nM): O=S(=O)(c1ccccc1)N(CC(F)(F)F)c1ccc(C(O)(C(F)(F)F)C(F)(F)F)cc1

Cell line,dovitinib,T0901317,MK-1775,lestaurtinib,CHIR-265,XAV939,KU-0063794
LB2518-MEL,87.2,68.8,134,70.1,584,63.4,-
RPMI-7951,68.7,87.3,103,287,129,36.8,80.5
C32,73.6,88.0,148,91.8,147,102,84.9
WM115,130,109,388,102,1060,61.7,55.3
MEL-HO,102,56.3,23.9,101,66.9,251,149
IST-MEL1,30.8,112,74.7,87.2,70.3,60.8,62.0
RVH-421,65.5,296,68.6,158,93.9,102,95.1
WM451Lu,83.7,193,119,235,234,66.6,123
WM3526,126,90.6,126,313,385,75.6,53.6
LOX IMVI,149,94.6,57.8,142,87.8,124,43.9
UACC-62,83.1,71.3,7.0,109,461,52.9,78.7
COLO 792,174,63.5,119,141,537,79.0,116
SK-MEL-30,154,119,131,159,159,40.0,60.2
G-361,179,177,65.0,211,697,87.0,62.2
A2058,430,92.5,102,133,293,91.5,93.7
COLO 800,63.6,231,267,49.6,233,91.5,579
IPC-298,54.7,122,106,57.7,113,64.5,58.9
501mel,154,296,111,65.6,307,50.0,-
WM3619,139,130,215,129,302,99.2,125
A101D,47.4,99.9,235,163,215,43.7,89.9
MeWo,131,120,78.9,123,78.6,41.9,54.2
A375,168,72.0,148,86.4,157,162,86.3
SK-MEL-28,129,92.2,83.9,60.6,144,268,71.1
COLO 829,148,138,161,107,71.3,64.3,132
SK-MEL-5,108,173,208,148,540,184,80.2
WM1745,-,122,163,-,165,146,106
MZ2-MEL,151,100,42.7,140,247,74.6,-
WM1716,75.3,45.2,138,111,520,51.4,70.3
UACC-257,120,45.9,33.1,59.5,74.7,47.3,62.0
SK-MEL-2,111,138,128,92.4,198,111,-

Source: doi:10.1371/journal.pone.0140310, primary screening data, rounded.